The campaign covered roughly 400,000 compounds. About 13,000 (3.2%) were called active. The inconclusive results got no clear call from the source; some entries with a clear call stand among them for comparison. The call rests on the fitted dose curve; in most records, active means well fitted cell-killing curve with a large enough effect; inconclusive means small, poorly fitted or top-dose-only effect, or effect the other way; inactive means flat fitted curve, though single readings scatter. Where the call is inconclusive, the potency comes from a doubtful curve fit.
Test: qHTS assay for MDR1-selective chemotherapeutics: Primary screen using the drug-selected MDR subline cells KB-V1; further: nearly all actives have a fitted effect of over 60% in size
Details: KB-V1 MDR cells viability, CellTiter-Glo, 72 h; activity change, negative = cytotoxicity: at 46.1 µM (top of the series)
Procedure, shortened: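 Luminescent ATP read-out (CellTiter-Glo, 10 min) measures survival of drug-selected KB-V1 MDR cells after 72 h, 37 degrees C compound exposure. Medium: phenol-red-free DMEM, 10% FBS. Values from fitted concentration-response curves.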
On the % scale 0 is the no-effect control and ±100 the full control effect; potency means the concentration at half of the fitted maximal effect.

SMILES | Potency | activity change, negative = cytotoxicity
COc1cc2cc(CNc3ccc(C)cc3)c(=O)n(CC(=O)Nc3ccc(C(C)C)cc3)c2cc1OC | inactive | –
CC1(Cc2ccccc2C#N)C(=O)Nc2ccc(-c3ccccc3)cc21 (configuration not stated) | inactive | –
CCOc1ccccc1NC(=O)CN(CCc1ccccc1)S(=O)(=O)c1ccc(C)cc1 | inactive | –
CC(NC(=O)CN(C)CC(=O)Nc1ccc(Cl)c(C(F)(F)F)c1)c1ccccc1 (configuration not stated) | inconclusive: 25.9 µM [cytotoxic, single point] | –
CCC(=NC(C)c1ccccc1)c1c(O)n(C)c(=O)n(C)c1=O (configuration not stated) | active: 2.59 µM | –
O=C(Nc1nnc(-c2cc(Cl)ccc2Cl)o1)c1ccco1 | inconclusive: 29.1 µM [cytotoxic, single point] | –
CCC(C(=O)Nc1cc(C(=O)Nc2cc(C)ccn2)ccc1Cl)c1ccccc1 (configuration not stated) | inconclusive: 0.82 µM [cytotoxic, full curve] | –
O=C(CN1CCN(c2ccccc2O)CC1)NC(=O)NCc1ccco1 | inconclusive: 18.4 µM [cytotoxic, partial curve, poor fit] | –
CSc1nc(N2CCOCC2)c2c3c(sc2n1)CCCC3 | inconclusive: 20.6 µM [cytotoxic, single point] | –
O=C(Nc1ccc(F)c(Cl)c1)Nc1nnc([C@H]2C[C@H](O)[C@@H](CO)O2)s1 | inactive | –
CCOc1ccc(NS(=O)(=O)c2cc(NC(=O)c3ccc(C)cc3)ccc2Cl)cc1 | active: 0.82 µM | –
Cc1cccc(C)c1NC(=O)C(c1ccc(Cl)cc1Cl)N1CCCCC1 (configuration not stated) | inconclusive: 1.03 µM [cytotoxic, full curve, poor fit] | –
C#CCNc1ccc(C(=O)OCC)cc1 | – | inconclusive: -14.8%
CNC(=O)c1c(NC(=O)CCS(=O)(=O)c2ccc(C)cc2)sc(C)c1C | inactive | –
CC1Cc2ccccc2N1C(=O)c1ccc(N2CCCCC2)c([N+](=O)[O-])c1 (configuration not stated) | active: 13 µM | –
CN1CCN(Cc2cc(Cl)c3cccnc3c2OC(=O)c2cccs2)CC1 | active: 5.8 µM | –
Cc1sc(NC(=O)c2c(F)cccc2F)nc1-c1ccccc1 | inconclusive: 29.1 µM [cytotoxic, single point] | –
COc1ccc(C(=O)C2CCCN(C(=O)Cc3c(C)noc3C)C2)cc1OC (configuration not stated) | inconclusive: 16.4 µM [cytotoxic, partial curve, poor fit] | –
CC(=O)N1Cc2cc(C(=O)NCc3cccc(F)c3)nc(-c3cccc(C4=CCCCC4)c3)c2[C@H]1CCO | inactive | –
Cc1ccc(NC(=O)CN(C)C(=O)COc2ncnc3ccc(Br)cc23)cc1 | inactive | –
O=C(O)c1cccc(NC(=O)c2ccc(CN3C(=O)c4ccccc4C3=O)cc2)c1 | inconclusive: 16.4 µM [rising, single point] | –
O=C(Cc1sc(Nc2ccccc2)nc1-c1ccccc1)NCc1ccccn1 | inconclusive: 10.3 µM [cytotoxic, partial curve] | –
Cc1ccc(S(=O)(=O)N2CCN(c3cnn(C)c(=O)c3Cl)CC2)cc1 | inconclusive: 23.1 µM [cytotoxic, single point] | –
O=C(c1cc(S(=O)(=O)N2CCOCC2)ccc1F)N(Cc1nnc(-c2ccccc2Cl)o1)C1CC1 | inconclusive: 7.31 µM [cytotoxic, partial curve] | –

SMILES | Potency | activity change, negative = cytotoxicity
Cc1ccc(S(=O)(=O)N2CCN(S(=O)(=O)c3ccccc3)C2)cc1 | inconclusive: 16.4 µM [cytotoxic, single point] | –
CCOc1ccc(NC(=O)Nc2cc(C(C)C)c(O)cc2C)cc1 | inactive | –
CCc1cccc(NC(=O)c2nc(-c3ccncc3)no2)c1 | inconclusive: 20.6 µM [rising, single point] | –
COCC(=O)Nc1cc(Cl)ccc1C | inactive | –
COc1cc(/C=C2/NC(=O)NC2=O)cc(Br)c1OCc1ccccc1 | inconclusive: 29.1 µM [rising, partial curve, poor fit] | –
O=C(CSc1nc2ccccc2c(=O)n1CC1CCCO1)NCCc1ccccc1 (configuration not stated) | inconclusive: 2.31 µM [cytotoxic, partial curve, poor fit] | –
CCOC(=O)c1cccc(NC(=O)CN(c2ccc(OC)cc2)S(=O)(=O)c2c(C)noc2C)c1 | active: 9.2 µM | –
COC(=O)C(Cc1ccc(O)cc1)NC(=O)CCOc1ccc(OC)cc1 (configuration not stated) | inactive | –
COc1ccc(CCN=C(NS(=O)(=O)c2ccccc2)c2ccccc2)cc1OC | inconclusive: 16.4 µM [cytotoxic, single point] | –
Cc1ccccc1Cn1c(C)nc2ccc([N+](=O)[O-])cc2c1=O | inactive | –
Cc1ccnc(N2CCCC(C(=O)Nc3cccc(C)c3C)C2)n1 (configuration not stated) | inactive | –
Fc1cccc(NCc2cccn2-c2nnc(N3CCOCC3)s2)c1 | inactive | –
Nc1nc(C23CC4CC(CC(Cl)(C4)C2)C3)cs1 | inconclusive: 0.0058 µM [rising, full curve, poor fit] | –
O=C(N/C(=C\c1ccccc1)C(=O)N1CCN(CCO)CC1)c1ccccc1 | inactive | –
CS(=O)(=O)c1ccc(Cl)c(NC(=O)CN2C(=O)C3CCCCC3C2=O)c1 (configuration not stated) | inconclusive: 29.1 µM [rising, single point] | –
COc1cc2c(cc1OC)CN(C(=O)c1cc3ccccc3oc1=O)CC2 | active: 4.61 µM | –
Cc1ccc(S(=O)(=O)c2cc3c(=O)n4ccccc4nc3n(CC3CCCO3)c2=N)cc1C (configuration not stated) | active: 4.61 µM | –
COc1ccc(S(=O)(=O)Nc2ccc3c(c2)CCC3)cc1 | inconclusive: 23.1 µM [cytotoxic, single point] | –
CCOc1cc(-c2c(C#N)c(=O)[nH]c3c2c(C)nn3-c2ccc(F)cc2)ccc1O | inconclusive: 32.6 µM [cytotoxic, partial curve, poor fit] | –
CCOCCC(=O)Nc1ccc2c(c1)c(=O)n(C)n2-c1ccccc1F | inactive | –
COc1ccc(CC(=O)NNC(=S)Nc2ccccc2)cc1Br | inactive | –
Cc1ccc(C(=O)NCC(=O)OCCCOC(=O)CNC(=O)c2ccc(C)cc2)cc1 | inconclusive: 32.6 µM [rising, single point] | –
Cc1ccc(C=NNC(=O)C(=O)Nc2ccc(Cl)c([N+](=O)[O-])c2)cc1 | inactive | –

A portion taken from the entries so far, as a working copy:
SMILES | Potency | activity change, negative = cytotoxicity
CCOc1ccccc1NC(=O)CN(CCc1ccccc1)S(=O)(=O)c1ccc(C)cc1 | inactive | –
CC(NC(=O)CN(C)CC(=O)Nc1ccc(Cl)c(C(F)(F)F)c1)c1ccccc1 (configuration not stated) | inconclusive: 25.9 µM [cytotoxic, single point] | –
CCC(=NC(C)c1ccccc1)c1c(O)n(C)c(=O)n(C)c1=O (configuration not stated) | active: 2.59 µM | –
O=C(Nc1nnc(-c2cc(Cl)ccc2Cl)o1)c1ccco1 | inconclusive: 29.1 µM [cytotoxic, single point] | –

Source: PubChem BioAssay AID1347076 (National Center for Advancing Translational Sciences (NCATS), 2019)
